Some of these results come from one statement about several compounds together.
Experiments:
Format in all cases: in vivo
[1] = tested on: cotton melon aphid (Aphis gossypii (Glover)); test: Test E: control of cotton melon aphid, spray on okra plant; details: assessed after 6 days
Protocol: Test compounds were formulated using a solution containing 10% acetone, 90% water and 300 ppm Activator 90® non-ionic surfactant (Loveland Products, Loveland, Colorado, USA). The formulated compounds were applied in 1 mL of liquid through an atomized nozzle positioned 1.27 cm (0.5 inches) above the top of each test unit. Test compounds were sprayed at the rates indicated, and each test was replicated three times.
For evaluating control of cotton melon aphid (Aphis gossypii (Glover)) through contact and/or systemic means, the test unit consisted of a small open container with a 5-day-old okra plant inside. This was pre-infested with 30-40 insects on a piece of leaf according to the cut-leaf method, and the soil of the test unit was covered with a layer of sand.
Test compounds were formulated and sprayed at 250, 50, 10, and 2 ppm with three replications as described above. After spraying, the test units were maintained in a growth chamber for 6 days at 19° C. and 70% relative humidity. Each test unit was then visually assessed for insect mortality.

[2] = tested on: Diamond Back Moth (Plutella xylostella L.); test: Test A: control of Diamond Back Moth, foliar spray on mustard plant; details: neonate larvae, assessed after six days
[3] = tested on: Western Flower Thrips (Frankliniella occidentalis Pergande); test: Test F: control of Western Flower Thrips, spray on Soleil bean plant; details: adult thrips, assessed after 7 days
[4] = tested on: fall armyworm (Spodoptera frugiperda (J. E. Smith)); test: Test B: control of fall armyworm, foliar spray on corn plant; details: one-day-old larvae, assessed after 6 days

## CC(NC(=O)c1cc(Cl)cc(OS(=O)(=O)CC2CC2)c1)c1ncnn1-c1ncccn1 (centres unmarked) [Compound 23]
[1]; sprayed at 250 ppm
  mortality: at least 80%
[2]; sprayed at 10 ppm
  control efficacy (feeding damage): ≤ 20%
[2]; sprayed at 50 ppm
  control efficacy (feeding damage): ≤ 20%
[2]; sprayed at 250 ppm
  control efficacy (feeding damage): ≤ 20%
[3]; sprayed at 250 ppm
  control efficacy (feeding damage): ≤ 20%

## CC(NC(=O)c1cc(OS(=O)(=O)CC2CC2)cc(C(F)(F)F)c1)c1ncnn1-c1ncccn1 (centres unmarked) [Compound 29]
[1]; sprayed at 50 ppm
  mortality: at least 80%
[1]; sprayed at 250 ppm
  mortality: at least 80%
[2]; sprayed at 2 ppm
  control efficacy (feeding damage): ≤ 20%
[2]; sprayed at 10 ppm
  control efficacy (feeding damage): ≤ 20%
[2]; sprayed at 50 ppm
  control efficacy (feeding damage): ≤ 20%
[2]; sprayed at 250 ppm
  control efficacy (feeding damage): ≤ 20%
[3]; sprayed at 250 ppm
  control efficacy (feeding damage): ≤ 20%

## CC(c1ncnn1-c1ncccn1)N(Cc1ccccc1)C(=O)c1cc(Cl)cc(OS(=O)(=O)C(F)(F)F)c1 (centres unmarked) [Compound 30]
[1]; sprayed at 50 ppm
  mortality: at least 80%
[1]; sprayed at 250 ppm
  mortality: at least 80%
[2]; sprayed at 50 ppm
  control efficacy (feeding damage): ≤ 20%
[2]; sprayed at 250 ppm
  control efficacy (feeding damage): ≤ 20%

## CCOC(=O)CS(=O)(=O)Oc1cc(C(=O)NC(C)c2ncnn2-c2ncccn2)cc(C(F)(F)F)c1 (centres unmarked) [Compound 32]
[1]; sprayed at 250 ppm
  mortality: at least 80%
[2]; sprayed at 250 ppm
  control efficacy (feeding damage): ≤ 20%

## CC(c1ncnn1-c1ncccn1)N(Cc1ccccc1)C(=O)c1cc(OS(=O)(=O)C(F)(F)F)cc(C(F)(F)F)c1 (centres unmarked) [Compound 33]
[1]; sprayed at 50 ppm
  mortality: at least 80%
[1]; sprayed at 250 ppm
  mortality: at least 80%
[2]; sprayed at 10 ppm
  control efficacy (feeding damage): ≤ 20%
[2]; sprayed at 50 ppm
  control efficacy (feeding damage): ≤ 20%
[2]; sprayed at 250 ppm
  control efficacy (feeding damage): ≤ 20%
[4]; sprayed at 50 ppm
  control efficacy (feeding damage): ≤ 20%
[4]; sprayed at 250 ppm
  control efficacy (feeding damage): ≤ 20%
[3]; sprayed at 50 ppm
  control efficacy (feeding damage): ≤ 20%
[3]; sprayed at 250 ppm
  control efficacy (feeding damage): ≤ 20%

## CC(NC(=O)c1cc(Cl)cc(OS(=O)(=O)CCl)c1)c1ncnn1-c1ncccn1 (centres unmarked) [Compound 47]
[1]; sprayed at 250 ppm
  mortality: at least 80%
[2]; sprayed at 250 ppm
  control efficacy (feeding damage): ≤ 20%

## CC(NC(=O)c1cc(OS(=O)(=O)CCl)cc(C(F)(F)F)c1)c1ncnn1-c1ncccn1 (centres unmarked) [Compound 51]
[1]; sprayed at 50 ppm
  mortality: at least 80%
[1]; sprayed at 250 ppm
  mortality: at least 80%
[2]; sprayed at 50 ppm
  control efficacy (feeding damage): ≤ 20%
[2]; sprayed at 250 ppm
  control efficacy (feeding damage): ≤ 20%
[4]; sprayed at 250 ppm
  control efficacy (feeding damage): ≤ 20%
[3]; sprayed at 250 ppm
  control efficacy (feeding damage): ≤ 20%

From patent publication US20260083130A1, “NOVEL SULFONATE BENZAMIDE COMPOUNDS FOR CONTROLLING INVERTEBRATE PESTS” (FMC CORPORATION, priority 2022, published 2026)
